Results on two substances are retold here after patent US20210317161 (published 2021).

Where only a bound is given, the exact number is not on record here.

The nature of the data set: general procedure: hybrid (solid and solution phase) peptide synthesis; 2-Cl-Trt resin; TBTU/HOBt/DIPEA (cyclisation). The following applies: whole synthesis, Phenomenex 250x4 mm C-18, scale of the general procedure 30 gm resin; for crude HPLC purity: di-aspartate (via trifluoroacetate and free base).

Take “H-Phe-Pro(4-OCONH—(CH2)2—NH-Boc)-Phg-D-Trp(Boc)-Lys(Boc)-Tyr (Bzl)-OH”: the “crude HPLC purity” value is recorded as 88.3%.
Consider Pasireotide, for which the “crude HPLC purity” value is on record as 74%. Moreover, the “final HPLC purity” value (di-aspartate) was over 99.5%.
